Weaker means in comparison with the reference protein, sequence or condition of that experiment.
What was measured:
[1] = molecular target: LIG1 K845N (Cy5-labelled) (human) (UniProt P18858); test: single-molecule TIRF co-localization; conditions: 1 nM LIG1, 5'-phosphate on S18 at nick, TIRF: 1 mM HEPES pH 7.4, 20 mM NaCl, 0.02% BSA, 0.002% Tween 20, oxygen scavenger (44 mM glucose, glucose oxidase, catalase), 10 mM Trolox, 1 nM LIG1-Cy5, recombinant protein, residues 1-919, protein details: 6xHis, Cy5 (NHS ester)
[2] = molecular target: LIG1 wild-type (Cy5-labelled) (human) (UniProt P18858); test: single-molecule TIRF co-localization; conditions: short-lived, less frequent, nonspecific binding vs nick, 1 nM LIG1; TIRF: 1 mM HEPES pH 7.4, 20 mM NaCl, 0.02% BSA, 0.002% Tween 20, oxygen scavenger (44 mM glucose, glucose oxidase, catalase), 10 mM Trolox, 1 nM LIG1-Cy5; recombinant protein; residues 1-919; protein details: 6xHis, Cy5 (NHS ester); label: 5'-biotin and 3'-AF488 on S1

By UniProt entry, the sequences of proteins in these tests, tags left out.
UniProt P18858, whole entry K845N: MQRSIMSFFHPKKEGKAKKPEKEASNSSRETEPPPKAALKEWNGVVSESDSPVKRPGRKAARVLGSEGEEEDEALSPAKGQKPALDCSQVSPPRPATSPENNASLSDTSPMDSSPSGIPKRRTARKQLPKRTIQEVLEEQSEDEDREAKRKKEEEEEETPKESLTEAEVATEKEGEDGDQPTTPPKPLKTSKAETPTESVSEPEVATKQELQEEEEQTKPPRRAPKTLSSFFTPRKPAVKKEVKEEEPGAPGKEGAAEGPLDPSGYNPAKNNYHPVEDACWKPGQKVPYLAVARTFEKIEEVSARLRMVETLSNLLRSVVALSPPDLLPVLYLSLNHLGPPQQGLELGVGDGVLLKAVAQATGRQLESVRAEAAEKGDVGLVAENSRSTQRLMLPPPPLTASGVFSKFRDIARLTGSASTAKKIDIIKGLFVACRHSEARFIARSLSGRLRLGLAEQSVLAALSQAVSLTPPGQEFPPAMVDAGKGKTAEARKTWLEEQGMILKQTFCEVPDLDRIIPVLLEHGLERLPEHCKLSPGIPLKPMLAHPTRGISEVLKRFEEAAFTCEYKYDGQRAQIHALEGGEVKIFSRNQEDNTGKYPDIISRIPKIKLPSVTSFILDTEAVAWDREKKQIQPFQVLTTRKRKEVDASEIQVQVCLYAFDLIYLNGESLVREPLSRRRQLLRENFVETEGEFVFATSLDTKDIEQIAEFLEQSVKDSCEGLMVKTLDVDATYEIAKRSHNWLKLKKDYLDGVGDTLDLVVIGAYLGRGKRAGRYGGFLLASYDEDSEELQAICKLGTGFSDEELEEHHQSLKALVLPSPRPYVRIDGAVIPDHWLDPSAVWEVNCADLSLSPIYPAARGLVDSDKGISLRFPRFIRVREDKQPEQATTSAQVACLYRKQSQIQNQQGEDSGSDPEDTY
UniProt P18858, whole entry: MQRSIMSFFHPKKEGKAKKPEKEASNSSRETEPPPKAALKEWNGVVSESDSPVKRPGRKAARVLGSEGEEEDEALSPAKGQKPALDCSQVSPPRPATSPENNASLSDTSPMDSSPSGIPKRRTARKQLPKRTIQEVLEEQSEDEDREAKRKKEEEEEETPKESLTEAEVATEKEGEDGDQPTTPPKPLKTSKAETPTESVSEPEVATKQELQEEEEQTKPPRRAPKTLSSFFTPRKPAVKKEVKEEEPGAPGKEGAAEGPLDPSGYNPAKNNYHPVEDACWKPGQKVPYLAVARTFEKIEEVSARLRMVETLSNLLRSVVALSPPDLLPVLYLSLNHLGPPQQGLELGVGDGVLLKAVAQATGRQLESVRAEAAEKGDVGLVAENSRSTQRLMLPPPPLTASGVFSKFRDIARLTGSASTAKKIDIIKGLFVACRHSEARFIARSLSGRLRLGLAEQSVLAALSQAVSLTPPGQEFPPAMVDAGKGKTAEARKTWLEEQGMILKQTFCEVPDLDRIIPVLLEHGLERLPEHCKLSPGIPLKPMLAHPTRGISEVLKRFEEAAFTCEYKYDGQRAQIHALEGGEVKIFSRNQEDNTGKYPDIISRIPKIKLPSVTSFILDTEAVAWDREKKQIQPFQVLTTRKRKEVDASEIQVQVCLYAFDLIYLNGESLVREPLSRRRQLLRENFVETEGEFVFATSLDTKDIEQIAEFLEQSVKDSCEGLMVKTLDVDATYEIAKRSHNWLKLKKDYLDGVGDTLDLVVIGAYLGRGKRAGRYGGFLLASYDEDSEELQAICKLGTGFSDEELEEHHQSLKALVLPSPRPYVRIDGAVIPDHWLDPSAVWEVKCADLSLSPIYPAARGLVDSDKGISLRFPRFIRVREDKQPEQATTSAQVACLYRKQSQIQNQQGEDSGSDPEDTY

CATGGGCGGCATGAACCA / GAGGCCCATCCTCACC / GGTGAGGATGGGCCTCTGGTTCATGCCGCCCATG [nick A:T]
binding result ([1]; tbound 5.0 ± 0.2 s and 0.4 ± 0.1 s, tunbound 100 ± 12 s, label: 5'-biotin on S15, 3'-AF488 on S18): binds more weakly

CATGGGCGGCATGAACCAGAGGCCCATCCTCACC (double strand) [no-nick dsDNA]
binding result [2]: binds more weakly

CATGGGCGGCATGAACCG / GAGGCCCATCCTCACC / GGTGAGGATGGGCCTCAGGTTCATGCCGCCCATG [nick 8oxoG:A]
binding result ([1]; tunbound 145 ± 11 s, tbound not significantly different from wild-type, 8-oxo-dG at position 18 of strand 1, label: 5'-biotin on strand 1, 3'-AF488 on S18, letters put together from the description): binds more weakly

From paper PMC12673853
